The record followed here is PubChem BioAssay AID2685 (National Center for Advancing Translational Sciences (NCATS), 2010).

This is one part of the list. The main result of the screen is listed elsewhere. These columns were measured beside it and carry no call. Most of these compounds were active or inconclusive in the main read-out, so they are no random draw. Potencies come from curve fits of mixed quality, noted in brackets.

This assay is described as follows: qHTS Assay for Lipid Storage Modulators in Drosophila S3 Cells.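 On cell number change: cells counted by Cell Tracker Red CMTPX staining in the red channel.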 The settings on record: BODIPY lipid droplet fluorescence, 18-24 h; for cell number change: measured here: cell count max response, cells fed with added oleic acid. A digest of the protocol:
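Drosophila S3 cells loaded with oleic acid (400 uM, as added) and compounds at several concentrations; lipid droplets imaged by 488-nm laser-scanning cytometry, 500–530 nm intensity and object ratio to cell channel. Percent activity normalized to 20 uM Triacsin C.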
For orientation: qHTS replaces the single test concentration by a dilution series.

Setting [1] is: measured here: lipid fluorescence (Fed channel) AC50, cells fed with added oleic acid.
The mark [2] stands for this setting: measured here: cell number channel AC50, cells fed with added oleic acid.

Take `CCOCC(=O)Nc1ccc(S(=O)(=O)Nc2nccs2)cc1`: the cell number change was determined as 0.265%.
As a reminder, the AC50 is the midpoint of the concentration-response curve, whichever way the signal moves. High values mean weaker potency, low ones greater potency. For `CCn1nc(C(=O)Nc2cccc(S(=O)(=O)N3CCCC3)c2)c2ccccc2c1=O`, the cell number change amounted to 17.4%. The AC50 under setting [1] is 32.6 µM [rising, single point].
Take `COc1ccc(CCN(C)C(=O)c2cccc(S(=O)(=O)NCc3ccccc3)c2)cc1OC`: the cell number change was -48.4%. In addition, the concentration at half-maximal activity (AC50) under setting [2] is 32.6 µM [falling, single point].
Consider `Cc1ccc(CNC(=O)c2cc(S(=O)(=O)N3CCCCC3)ccc2N2CCOCC2)cc1`, for which the cell number change came to 5.54%. Also, the half-maximal activity concentration (AC50) under setting [1] is 1.64 µM [rising, full curve].
Regarding `CC[C@H](C)[C@H](NC(=O)c1ccc(Cl)cc1)C(=O)OCC(=O)c1ccc2c(c1)NC(=O)CO2`, the cell number change is -73.8%. Moreover, the AC50 under setting [2] is 6.51 µM [falling, partial curve]. In addition, the half-maximal activity concentration (AC50) under setting [1] is 6.51 µM [falling, partial curve].
In the case of `CCN(CC)CCCN1C(=O)C(O)=C(C(=O)c2cc3cccc(OC)c3o2)C1c1ccncc1` (stereo unspecified), the cell number change was 2.38%. The AC50 under setting [1] is 0.58 µM [falling, single point].
For `Cc1ccc(NC(=O)/C(=C\c2ccc3c(c2)OCO3)NC(=O)c2ccco2)cc1`, the cell number change was -20.2%. Moreover, the AC50 under setting [1] was 29.1 µM [falling, single point].
As to `CC(C)CNC(=O)C(=O)NCC1OCCCN1S(=O)(=O)c1cccs1` (stereo unspecified), the cell number change was -38.5%. In addition, the half-maximal activity concentration (AC50) under setting [1] is 0.355 µM [rising, full curve].
Regarding `CC(C)(C)c1cn(-c2ccc(Cl)cc2)c(=S)[nH]1`, the cell number change was found to be 2.15%. Also, the half-maximal activity concentration (AC50) under setting [1] was 0.651 µM [falling, full curve].
For `Cc1cc(=O)[nH]c(-n2ncc(C#N)c2N)n1`, the cell number change is -17.6%. For the same compound, under setting [2], the AC50 was 0.00461 µM [falling, full curve, poor fit].
On to `NC1=NC[C@H](c2ccccc2)N1CCc1cc(C(F)(F)F)cc(C(F)(F)F)c1`, for which the cell number change is -57.6%. In addition, the AC50 under setting [2] was 25.9 µM [falling, partial curve, poor fit]. Under setting [1], the half-maximal activity concentration (AC50) was 18.4 µM [falling, partial curve, poor fit].
`COc1ccc(S(=O)(=O)N2CCN(CCOc3ccccc3Cl)CC2)cc1OC`: the cell number change is 8.77%. Further, the concentration at half-maximal activity (AC50) under setting [1] is 1.46 µM [rising, partial curve].
For `Cc1cccc(C)c1OCc1nnc(SCC(=O)Nc2nccs2)n1-c1ccccc1`, the cell number change was 21.5%. The AC50 under setting [2] was 0.291 µM [rising, full curve, poor fit]. For the same compound, the concentration at half-maximal activity (AC50) under setting [1] was 0.461 µM [rising, full curve].
Consider `C/C=C\C(=O)Nc1cccc(C2=NOC3(C2)C[C@H](C(N)=O)N(C(=O)[C@H]2CCC(=O)N2)C3)c1` (stereo partly specified), for which the cell number change was -18.4%. Also, the AC50 under setting [2] was 0.00461 µM [falling, full curve, poor fit]. Under setting [1], the AC50 is 2.91 µM [falling, full curve].
As for `Cc1ccc(C(=O)/C=C/c2cc(Br)cc(Br)c2O)o1`, the cell number change is -95.8%. Besides, the half-maximal activity concentration (AC50) under setting [2] is 29.1 µM [falling, partial curve, poor fit].
Turning to `CC1CCN(c2c(NCC3CCC(C(=O)N4CCCC(C)C4)CC3)c(=O)c2=O)CC1` (stereo unspecified), the cell number change stood at 10.7%.
With `CSCCC(NS(=O)(=O)c1ccc(Cl)cc1)C(=O)OCC(=O)c1c(C)[nH]c2ccccc12` (stereo unspecified), the cell number change was -25.6%. Besides, the AC50 under setting [1] is 6.51 µM [rising, partial curve, poor fit].
Take `O=c1c2cc(F)ccc2sn1-c1ccccc1`: the cell number change was -81.1%. The AC50 under setting [2] was 5.8 µM [falling, full curve]. The AC50 under setting [1] was 29.1 µM [falling, partial curve].
As to `CCC(C)NC(=O)CNC(=S)N(Cc1ccc(F)cc1)C1CCCCC1` (stereo unspecified), the cell number change was -14.6%.
Take `COc1ccc([C@]23Cc4cc(C#N)ccc4C(O2)c2c(cc(C)n(-c4ccccc4)c2=O)O3)cc1`: the cell number change was found to be 15.4%. The AC50 under setting [1] was 5.31 µM [rising, single point].
For `CCC(=O)Nc1cccc(C(=O)c2ccccc2)c1`, the cell number change was -9.4%. In addition, the half-maximal activity concentration (AC50) under setting [1] is 0.92 µM [rising, full curve].
Take `Cc1cccc(NC(=O)CN2C(=O)/C(=C3\SC(=S)N(CC4CCCO4)C3=O)c3ccccc32)c1` (stereo unspecified): the cell number change is 3.44%. For the same compound, the AC50 under setting [1] is 14.6 µM [rising, partial curve].
In the case of `Cc1ccc(NC(=O)Nc2cccc([N+](=O)[O-])c2)cc1F`, the concentration at half-maximal activity (AC50) under setting [1] was 6.51 µM [falling, single point].
Turning to `CC1CCN(S(=O)(=O)c2ccc(Cl)cc2Br)CC1`, the half-maximal activity concentration (AC50) under setting [1] was 6.51 µM [falling, single point].
On to `Cc1ccc(-c2cnn3c(N4CCOCC4)cc(C)nc23)cc1`, for which the cell number change was determined as 9.93%.
On to `NC1=NC2=C(CCCC2)C2(CCCCC2)S1`, for which the cell number change turned out to be 2.08%. Also, under setting [1], the concentration at half-maximal activity (AC50) is 6.51 µM [falling, single point].
As to `COc1cccc(Nc2ncnc3sc(C)cc23)c1`, the cell number change is 1.32%. In addition, the AC50 under setting [1] was 29.1 µM [falling, single point].
In the case of `C[C@@H]1CC=C[C@H]2[C@H]1C(=O)N(Cc1ccccc1)[C@H]2c1ccc(F)c(/C=C/c2ccccc2)c1`, the cell number change worked out at 0.164%. Besides, under setting [1], the AC50 was 2.31 µM [rising, single point].
Turning to `C/C(=N\NC(=O)c1ccc2c(c1)OCO2)c1cccnc1`, the cell number change is 11.2%. Besides, the half-maximal activity concentration (AC50) under setting [2] is 6.51 µM [rising, partial curve]. In addition, under setting [1], the AC50 was 6.51 µM [rising, single point].
With `COC(=O)c1ccccc1NC(=O)C1CC(=O)N(c2ccccc2)C1` (stereo unspecified), under setting [2], the AC50 is 6.51 µM [rising, single point].
For `COc1cc(C2c3c(-c4ccccc4)n[nH]c3C(=O)N2c2ccc(C(=O)O)cc2)ccc1O` (stereo unspecified), the AC50 under setting [1] is 0.0116 µM [rising, full curve, poor fit].
Turning to `Cc1cc(C)c2c(CC(=O)Nc3nccs3)coc2c1`, the cell number change was -7.69%. Moreover, under setting [1], the AC50 is 0.184 µM [rising, full curve, poor fit].
As for `CC(C)c1ccc(NC(=O)COC(=O)/C=C/c2cccc(Br)c2)cc1`, the cell number change was -45.2%. For the same compound, the half-maximal activity concentration (AC50) under setting [2] is 6.51 µM [falling, full curve]. For the same compound, the AC50 under setting [1] is 6.51 µM [falling, full curve].
In the case of `CC(C)CCNC(=O)c1ccc2nc[nH]c2c1`, the cell number change stood at 11.6%. In addition, the AC50 under setting [1] was 6.51 µM [falling, single point].
Regarding `CC(C)(C)c1ccc(C(=O)N2CCC(C(=O)N3CCCCC3)CC2)cc1`, the cell number change is 14.5%.
Same read-out and setting: then `CN(C)c1ccc(C(C(=O)NCC2CCCO2)N(C(=O)c2snc(C(N)=O)c2N)c2ccccc2)cc1` (stereo unspecified), with -7.69%.
As to `O=C(CSc1nnc(NC(=O)c2ccco2)s1)Nc1ccccc1`, the cell number change is -29.9%. For the same compound, the AC50 under setting [1] is 29.1 µM [falling, single point].
